Reference: PubChem BioAssay AID504764 (Drosophila RNAi Screening Center, 2011)
Purpose: 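Genome-wide screen for regulators of Notch-driven gene expression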 (primary screen). Cell system: Drosophila Kc167 cells. Knock-down reagent: long dsRNA against Drosophila genes. Timing: about 5 days (4 days dsRNA, then 24 h after transfection). Treatment: transfection of constitutively active membrane-tethered Notch lacking the extracellular domain, read 24 h later. Read-out: 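Firefly luciferase from an E(spl)m3 reporter with active Notch, plus control-promoter and uninduced reporter wells for normalisation; unnormalised counts, duplicate wells a and b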. Reading the numbers: induced reporter light, run 1, well a and induced reporter light, run 1, well b: higher = more light from the Notch target reporter with active Notch; control promoter light, run 1, well a and control promoter light, run 1, well b: higher = more light from the viral control promoter (cell number, transfection, viability); uninduced reporter light, run 1, well a: higher = more light from the Notch target reporter without active Notch. Hit rule: 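Hit if the duplicate-averaged log2 ratio of induced to control-promoter light gives a plate-wise z beyond ±2, or induced to uninduced beyond ±1.8; weak-control or discordant-duplicate wells dropped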. Calls: active = modifier hit (raised or lowered Notch signal); inactive = not a hit.
The deposit covers about 22,000 reagents; this is a random part of those with a known target gene and a result. In the full data, 403 (1.9%) were called active. 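Unnormalised raw counts per well; ratio z-scores behind the hit calls and whether each hit raises or lowers signal are not deposited.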 Unmarked entries are inactive. Names joined by + are all predicted targets of the reagent. No sequences are given here. The record does not give: the amount of reagent.

The first 4 entries, ahead of the listing:
Gene,amplicon,"induced reporter light, run 1, well a","induced reporter light, run 1, well b","control promoter light, run 1, well a","control promoter light, run 1, well b","uninduced reporter light, run 1, well a"
CG13082,DRSC02186,22840,24040,24875,17250,1410
CG12061,DRSC20715,86190,87010,1.28e5,1.34e5,11615
Polr3B,DRSC07536,1.14e5,1.09e5,1.13e5,81725,11570
CNMa,DRSC08405,1.11e5,1.25e5,1.70e5,2.07e5,6560

Results, from the first entry:
Gene,amplicon,"induced reporter light, run 1, well a","induced reporter light, run 1, well b","control promoter light, run 1, well a","control promoter light, run 1, well b","uninduced reporter light, run 1, well a"
CG13082,DRSC02186,22840,24040,24875,17250,1410
CG12061,DRSC20715,86190,87010,1.28e5,1.34e5,11615
Polr3B,DRSC07536,1.14e5,1.09e5,1.13e5,81725,11570
CNMa,DRSC08405,1.11e5,1.25e5,1.70e5,2.07e5,6560
CG3106,DRSC18279,1.41e5,1.23e5,1.53e5,1.59e5,8950
Su(z)12,DRSC11293,1.23e5,96160,88295,67515,8832
5PtaseI,DRSC16269,5220,7165,7432,5860,770
GlnRS,DRSC14140,41135,29770,57795,74405,2555
CG17824 (retired record),DRSC10288,2.00e5,1.77e5,2.37e5,1.71e5,7960
lncRNA:CR32553,DRSC19229,1.08e5,88420,88795,84860,8460
Est-P,DRSC11163,1.49e5,1.42e5,1.66e5,1.21e5,7525
ERR,DRSC10840,1.02e5,87490,79205,46200,12342
Cyp40,DRSC10980,89645,81135,66465,23035,8725
CG14589,DRSC04866,1.61e5,1.40e5,1.52e5,1.54e5,11225
CG13445,DRSC09992,1.56e5,1.70e5,1.73e5,1.84e5,7530
Tmf,DRSC18368,1.59e5,1.53e5,2.68e5,2.14e5,13200
CG7715,DRSC16301,1.74e5,1.74e5,1.76e5,1.59e5,12705
CG18747,DRSC15384,80335,1.03e5,77565,61100,3578
Osi8,DRSC12277,86905,85335,1.12e5,80175,5105
Gem2,DRSC09721,1.10e5,1.17e5,69175,74400,8325
CG13676,DRSC10035,3.04e5,2.32e5,4.31e5,2.63e5,15410
CSN4,DRSC07350,96120,89615,87915,84160,12010
rhea,DRSC11300,1.60e5,1.53e5,1.71e5,1.31e5,8465
lin-28,DRSC10261,2.73e5,1.76e5,1.98e5,1.93e5,9790
sub,DRSC06125,64595,70365,1.45e5,1.56e5,7495
CG5131,DRSC02817,1.02e5,1.57e5,1.43e5,1.36e5,10785
Agpat1,DRSC19879,1.28e5,1.23e5,2.57e5,3.15e5,8530
Agpat1,DRSC19880,1.53e5,1.39e5,2.84e5,2.39e5,9190
HemK2 + Snapin,DRSC00736,1.77e5,2.31e5,2.14e5,2.43e5,19328
HemK2 + Snapin,DRSC00737,1.01e5,1.09e5,96335,66110,11445
Use1,DRSC10180,1.84e5,2.24e5,2.04e5,1.91e5,11390
CG12744,DRSC06164,2.19e5,1.77e5,1.42e5,1.81e5,13765
Sulf1,DRSC16874,2.07e5,2.02e5,1.67e5,1.68e5,18320
CG1578,DRSC19729,1.90e5,1.45e5,2.33e5,1.92e5,11260
